Assay results taken from paper doi:10.1101/2023.03.18.533280.
Results are given in words; binding and its absence hold for the method and conditions named. Binding seen in cells or lysates may run through a third protein. These calls come from enrichment with a bait or labelling near it, and not all partners need be listed.

B1: Sterol-4-alpha-carboxylate 3-dehydrogenase (protein, UniProt Q15738 1-373)
chain: MEPAVSEPMRDQVARTHLTEDTPKVNADIEKVNQNQAKRCTVIGGSGFLGQHMVEQLLARGYAVNVFDIQQGFDNPQVRFFLGDLCSRQDLYPALKGVNTVFHCASPPPSSNNKELFYRVNYIGTKNVIETCKEAGVQKLILTSSASVIFEGVDIKNGTEDLPYAMKPIDYYTETKILQERAVLGANDPEKNFLTTAIRPHGIFGPRDPQLVPILIEAARNGKMKFVIGNGKNLVDFTFVENVVHGHILAAEQLSRDSTLGGKAFHITNDEPIPFWTFLSRILTGLNYEAPKYHIPYWVAYYLALLLSLLVMVISPVIQLQPTFTPMRVALAGTFHYYSCERAKKAMGYQPLVTMDDAMERTVQSFRHLRRVK

Biological target: EGFP-NSP12_(P323) (SARS-CoV-2 (Wuhan sequence)) (UniProt P0DTD1)
Assay: affinity purification with mass spectrometry

Molecule | binding
EEF1G (from UniProt P26641 1-437) | binds
EEF1A1 (from UniProt P68104 1-462) | binds
B1 | binds
